According to doi:10.1101/2022.01.28.478199:
No constants are given. Whether binding was seen depends on the method and setting. For part of these data: In cells and extracts the contact can be indirect. Some binding calls cover weakened binding; strength is not graded here.

Amino acid sequences for entries named in this document (tags omitted). Residues count along the entry.
UniProt P33416, 45-811: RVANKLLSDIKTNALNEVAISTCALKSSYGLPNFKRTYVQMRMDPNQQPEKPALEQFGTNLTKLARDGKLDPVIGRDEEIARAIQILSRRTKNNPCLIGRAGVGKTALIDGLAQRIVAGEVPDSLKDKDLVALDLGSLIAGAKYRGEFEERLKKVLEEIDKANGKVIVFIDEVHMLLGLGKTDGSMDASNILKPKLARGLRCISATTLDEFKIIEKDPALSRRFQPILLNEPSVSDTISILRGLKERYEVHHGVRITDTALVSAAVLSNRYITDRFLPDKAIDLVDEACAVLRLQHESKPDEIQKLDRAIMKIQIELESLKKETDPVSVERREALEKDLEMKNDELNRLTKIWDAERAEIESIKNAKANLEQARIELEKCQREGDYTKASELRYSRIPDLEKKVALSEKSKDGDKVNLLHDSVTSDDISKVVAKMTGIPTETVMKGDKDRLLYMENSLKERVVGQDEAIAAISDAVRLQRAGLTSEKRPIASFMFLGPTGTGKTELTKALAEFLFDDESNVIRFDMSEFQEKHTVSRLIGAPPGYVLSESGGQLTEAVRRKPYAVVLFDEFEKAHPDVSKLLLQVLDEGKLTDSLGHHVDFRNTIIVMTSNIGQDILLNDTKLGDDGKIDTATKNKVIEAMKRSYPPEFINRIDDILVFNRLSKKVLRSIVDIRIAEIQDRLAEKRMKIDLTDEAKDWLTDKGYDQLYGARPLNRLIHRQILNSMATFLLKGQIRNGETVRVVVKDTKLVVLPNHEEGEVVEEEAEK
UniProt P0CS90, 24-654: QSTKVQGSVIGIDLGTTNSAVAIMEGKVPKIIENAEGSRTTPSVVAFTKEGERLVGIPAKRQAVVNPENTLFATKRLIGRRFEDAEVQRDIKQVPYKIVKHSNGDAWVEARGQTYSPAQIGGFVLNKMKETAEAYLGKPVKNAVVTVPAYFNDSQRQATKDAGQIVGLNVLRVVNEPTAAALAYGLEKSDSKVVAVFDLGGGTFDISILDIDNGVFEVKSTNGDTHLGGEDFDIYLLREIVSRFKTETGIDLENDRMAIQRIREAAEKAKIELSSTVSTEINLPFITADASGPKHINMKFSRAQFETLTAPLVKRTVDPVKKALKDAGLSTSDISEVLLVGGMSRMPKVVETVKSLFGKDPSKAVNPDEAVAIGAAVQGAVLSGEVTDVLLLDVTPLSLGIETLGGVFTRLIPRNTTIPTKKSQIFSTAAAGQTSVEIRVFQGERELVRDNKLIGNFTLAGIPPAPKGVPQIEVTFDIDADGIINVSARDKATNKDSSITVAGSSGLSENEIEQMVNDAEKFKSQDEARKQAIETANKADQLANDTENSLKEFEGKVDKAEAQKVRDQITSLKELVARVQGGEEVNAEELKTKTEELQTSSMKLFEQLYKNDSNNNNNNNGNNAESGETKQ

Key:
[1] = molecular target: Hsp78-6xHis (wild-type Hsp78 with a C-terminal 6x polyhistidine-tag) (S. cerevisiae) (UniProt P33416); assay: pull-down
[2] = molecular target: WT Hsp78 expressed and affinity purified from E. coli (S. cerevisiae) (UniProt P33416); assay: native gel or EMSA
[3] = molecular target: WT Hsp78 expressed and affinity purified from E. coli (S. cerevisiae) (UniProt P33416); assay: SEC

“Ssc1 (mtHsp70, main Hsp70 chaperone of the mitochondrial matrix) (from UniProt P0CS90 24-654)” was tested, and the binding [1] was “binds”.

“WT Hsp78 expressed and affinity purified from E. coli (from UniProt P33416 45-811)” was tested, and the binding [2] was “binds” and the binding [3] was “binds”.
